# Laboratory results from PubChem BioAssay AID296 (DTP/NCI, 2004).
# The list does not hold the whole screen: it is rich in T/C values a quarter to a half above the control, in often repeated tests (any T/C) and in doses without a T/C. Other doses and runs of a compound stand elsewhere. T/C is the treated group as % of the vehicle group. Schedule codes are those of the source, read here as Q, the interval in days (D) or hours (H), X, the number of doses. Some entries hold several experiments; the values are given in rising order. Some structures stand for samples that the source files as different forms (salt, stereo form or complex); doses refer to the form tested. Some T/C values carry the count of animals alive at the toxicity check (mostly the fifth day); where none is given, no animal had died by that day. Some values lie below zero, which means that the treated tumours became smaller. Some entries give survivors of the animals treated and no T/C: the source files T/C as zero there, which appears to mark a toxic dose or a test without result, not a measured value. Counts of survivors are from the toxicity check (mostly the fifth day) where no day follows; animals may have died later.
# Tested on: MX-1 breast xenograft, nude mice, tumor weight T/C
# Assay: NCI In Vivo Anticancer Drug Screen. Data for tumor model Human Mammary Carcinoma MX-1 Xenograft (intrarenal inoculation) in NU/NU Swiss (nude) mice
# Conditions: T/C endpoint: mean tumor weight change, higher T/C = larger tumour; for T/C: evaluated on day 11
# How it was run: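 Read-out: treated (T) over vehicle control (C) ratio of survival or tumor size. Dosing in animals carrying the transplanted tumor.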
# [1] = dose: 600.0 mg/kg/injection, schedule: Q04DX003 (sc), vehicle: suspension in saline
# [2] = dose: 200.0 mg/kg/injection, schedule: Q04DX003 (sc), vehicle: saline
# [3] = dose: 600.0 mg/kg/injection, schedule: Q04DX003 (sc), vehicle: saline
# [4] = dose: 600.0 mg/kg/injection, schedule: Q04DX003 (sc), vehicle: saline with Tween-80
# [5] = dose: 100.0 mg/kg/injection, schedule: Q01DX010 (sc), vehicle: saline with Tween-80
# [6] = dose: 200.0 mg/kg/injection, schedule: Q01DX010 (sc), vehicle: saline with Tween-80
# [7] = dose: 50.0 mg/kg/injection, schedule: Q01DX010 (sc), vehicle: saline with Tween-80
# [8] = dose: 300.0 mg/kg/injection, schedule: Q04DX003 (sc), vehicle: suspension in saline
compound,measurement,setting,value
CN(C)N=Nc1ccc(C(=O)O)cc1,survivor count,"dose: 800.0 mg/kg/injection, schedule: Q04DX003 (ip), vehicle: saline",0 of 6 on day 11
CC(C)(C[NH-])C[NH-].[Cl][Pt+2][Cl],T/C,"dose: 6.0 mg/kg/injection, schedule: Q04DX003 (ip), vehicle: other",126 % of control [5 of 6 alive on day 11]
same,survivor count,"dose: 12.0 mg/kg/injection, schedule: Q04DX003 (ip), vehicle: other",2 of 6 on day 11
same,survivor count,"dose: 12.0 mg/kg/injection, schedule: Q04DX003 (ip), vehicle: water",2 of 6 on day 11
CC(Cc1ccc(O)c(O)c1)C(C)Cc1ccc(O)c(O)c1 (stereo unspecified),T/C,"dose: 600.0 mg/kg/injection, schedule: Q04DX003 (sc), vehicle: saline + alcohol",137 % of control
N=C(N)SCc1cccc2c(=O)cc(-c3ccccc3)oc12,T/C,[1],144 % of control [4 of 5 alive on day 11]
same,T/C,"dose: 1200.0 mg/kg/injection, schedule: Q04DX003 (sc), vehicle: suspension in saline",140 % of control
same,T/C,"dose: 2400.0 mg/kg/injection, schedule: Q04DX003 (sc), vehicle: suspension in saline",143 % of control
O=C(O)C(CSC(c1ccccc1)(c1ccccc1)c1ccccc1)N=Cc1cccs1 (stereo unspecified),T/C,"dose: 100.0 mg/kg/injection, schedule: Q04DX003 (sc), vehicle: suspension in saline",144 % of control
same,survivor count,"dose: 800.0 mg/kg/injection, schedule: Q04DX003 (sc), vehicle: suspension in saline",2 of 6 on day 11
COC12[C@@H]3N[C@@H]3CN1C1=C(C(=O)C(NCCSSCCNC3=C(C)C(=O)C4=C(C3=O)C(COC(N)=O)[C@]3(OC)C5N[C@@H]5CN43)=C(C)C1=O)[C@@H]2COC(N)=O (stereo partly specified),survivor count,"dose: 12.5 mg/kg/injection, schedule: Q04DX003 (ip), vehicle: DMSO",2 of 6 on day 11
same,survivor count,"dose: 25.0 mg/kg/injection, schedule: Q04DX003 (ip), vehicle: DMSO",0 of 6 on day 11
same,survivor count,"dose: 50.0 mg/kg/injection, schedule: Q04DX003 (ip), vehicle: DMSO",0 of 6 on day 11
NC(=O)c1[nH]nc(C2OC(CO)C(O)C2O)c1O (stereo unspecified),survivor count,"dose: 20.0 mg/kg/injection, schedule: Q04DX003 (sc), vehicle: saline",2 of 6 on day 11
same,survivor count,"dose: 40.0 mg/kg/injection, schedule: Q04DX003 (sc), vehicle: saline",0 of 6 on day 11
c1ccc2c(c1)[As]=c1ccccc1=[As]2 (stereo unspecified),survivor count,"dose: 1200.0 mg/kg/injection, schedule: Q04DX003 (sc), vehicle: saline",1 of 6 on day 11
CN1CCN(c2ccc3nc(-c4ccc5nc(-c6ccc(O)cc6)[nH]c5c4)[nH]c3c2)CC1,T/C,[2],144 % of control [4 of 6 alive on day 11]
same,survivor count,"dose: 1000.0 mg/kg/injection, schedule: Q04DX003 (sc), vehicle: suspension in saline",3 of 6 on day 11
same,survivor count,"dose: 2000.0 mg/kg/injection, schedule: Q04DX003 (sc), vehicle: suspension in saline",0 of 6 on day 11
OCCOCC(F)(F)F,T/C,[3],146 % of control
N#Cc1c(-c2ccc(F)cc2)c(-c2ccc(F)cc2)nn(CCO)c1=O,survivor count,"dose: 400.0 mg/kg/injection, schedule: Q04DX003 (ip), vehicle: distilled water + Tween-80",3 of 6 on day 11
same,survivor count,"dose: 800.0 mg/kg/injection, schedule: Q04DX003 (ip), vehicle: distilled water + Tween-80",2 of 6 on day 11
CC(Cc1ccc(O)cc1)NCC(O)c1ccc(O)c(O)c1 (stereo unspecified),survivor count,[4],3 of 6 on day 11
OCCN1CCN(CC/C=C2/c3ccccc3Sc3ccc(Cl)cc32)CC1,survivor count,[2],3 of 6 on day 11
same,survivor count,"dose: 400.0 mg/kg/injection, schedule: Q04DX003 (sc), vehicle: saline",0 of 6 on day 11
COC1=C(OC)C(=O)C(C/C=C(\C)CC/C=C(\C)CC/C=C(\C)CC/C=C(\C)CC/C=C(\C)CC/C=C(\C)CC/C=C(\C)CC/C=C(\C)CC/C=C(\C)CCC=C(C)C)=C(C)C1=O,T/C,[5],127 % of control
same,T/C,[6],138 % of control
ClCC[N+]12CC[N+](CCCl)(CC1)C2,survivor count,"dose: 25.0 mg/kg/injection, schedule: Q01DX010 (sc), vehicle: saline with Tween-80",1 of 3 on day 11
same,T/C,[7],"20, 81 [2 of 2 alive on day 11], 84 % of control"
same,survivor count,[7],0 of 3 on day 11
same,survivor count,"dose: 50.0 mg/kg/injection, schedule: Q01DX010 (sc), vehicle: suspension in saline",0 of 3 on day 11
same,T/C,[5],"-3 [2 of 2 alive on day 11], 37, 58 % of control [2 of 2 alive on day 11]"
same,survivor count,[5],0 of 3 on day 11
same,survivor count,"dose: 100.0 mg/kg/injection, schedule: Q01DX010 (sc), vehicle: suspension in saline",0 of 3 on day 11
same,T/C,[6],"-75 [2 of 3 alive on day 11], 3, 13 % of control [2 of 2 alive on day 11]"
same,survivor count,[6],0 of 3 on day 11
same,survivor count,"dose: 200.0 mg/kg/injection, schedule: Q01DX010 (sc), vehicle: suspension in saline",0 of 3 on day 11
same,T/C,"dose: 300.0 mg/kg/injection, schedule: Q04DX003 (sc), vehicle: water","18 [5 of 6 alive on day 11], 31, 55 % of control"
same,survivor count,"dose: 400.0 mg/kg/injection, schedule: Q01DX010 (sc), vehicle: saline with Tween-80",0 of 3 on day 11
same,survivor count,"dose: 400.0 mg/kg/injection, schedule: Q01DX010 (sc), vehicle: suspension in saline",0 of 3 on day 11
same,survivor count,"dose: 600.0 mg/kg/injection, schedule: Q04DX003 (sc), vehicle: water",3 of 6 on day 11 and 3 of 5 on day 11
same,survivor count,"dose: 1200.0 mg/kg/injection, schedule: Q04DX003 (sc), vehicle: water",0 of 6 on day 11
same,survivor count,"dose: 2400.0 mg/kg/injection, schedule: Q04DX003 (sc), vehicle: water",0 of 6 on day 11
CC1CN1P1(N2CC2C)=NP(N2CC2C)(N2CC2C)=NP(N2CC2C)(N2CC2C)=N1 (stereo unspecified),T/C,"dose: 75.0 mg/kg/injection, schedule: Q04DX003 (sc), vehicle: suspension in saline","23, 29, 32, 42, 46 % of control"
same,survivor count,"dose: 150.0 mg/kg/injection, schedule: Q01DX010 (sc), vehicle: saline",0 of 6 on day 11
same,T/C,"dose: 150.0 mg/kg/injection, schedule: Q04DX003 (sc), vehicle: suspension in saline","-94, 4, 5, 10 [5 of 6 alive on day 11], 72 % of control"
same,survivor count,"dose: 200.0 mg/kg/injection, schedule: Q01DX010 (sc), vehicle: saline",0 of 3 on day 11
same,survivor count,"dose: 300.0 mg/kg/injection, schedule: Q04DX003 (sc), vehicle: saline",0 of 6 on day 11
same,T/C,[8],6 % of control [5 of 6 alive on day 11]
same,survivor count,[8],"0 of 6 on day 11, 2 of 6 on day 11, 3 of 5 on day 11"
same,survivor count,[3],0 of 6 on day 11
same,survivor count,[1],0 of 6 on day 11
O=c1n(CC2CO2)c(=O)n(CC2CO2)n1CC1CO1 (stereo unspecified),survivor count,"dose: 75.0 mg/kg/injection, schedule: Q04DX003 (sc), vehicle: saline",0 of 6 on day 11
CC(=O)NC(C=O)OCC=O (stereo unspecified),survivor count,"dose: 800.0 mg/kg/injection, schedule: Q04DX003 (sc), vehicle: water",0 of 6 on day 11
CN(C)c1ccc2c(N(C)C)cc(N(C)C)nc2c1,survivor count,"dose: 150.0 mg/kg/injection, schedule: Q04DX003 (sc), vehicle: Klucel (hydroxypropylcellulose) (HPC)",0 of 6 on day 11
Cc1cc(=O)n2c3c(c4c(cc13)c(CN(C)C)cc(=O)n4C)OC2,survivor count,[4],1 of 6 on day 11
